{
  "source": "PubChem BioAssay AID248",
  "about": "(DTP/NCI, 2004)",
  "system": "L1210 leukemia ip in BDF1 mice, survival T/C",
  "test": "NCI In Vivo Anticancer Drug Screen. Data for tumor model L1210 Leukemia (intraperitoneal) in B6D2F1 (BDF1) mice",
  "conditions": "T/C endpoint: mean survival time, higher T/C = longer survival",
  "key": {"[1]": {"conditions": "dose: 200.0 mg/kg/injection, schedule: Q01DX009 (ip), vehicle: Klucel (hydroxypropylcellulose) (HPC)"}, "[2]": {"conditions": "dose: 400.0 mg/kg/injection, schedule: Q04DX003 (ip), vehicle: saline"}, "[3]": {"conditions": "dose: 400.0 mg/kg/injection, schedule: Q04DX003 (ip), vehicle: saline with Tween-80"}, "[4]": {"conditions": "dose: 50.0 mg/kg/injection, schedule: Q01DX009 (ip), vehicle: saline"}, "[5]": {"conditions": "dose: 100.0 mg/kg/injection, schedule: Q01DX009 (ip), vehicle: saline"}, "[6]": {"conditions": "dose: 200.0 mg/kg/injection, schedule: Q01DX009 (ip), vehicle: saline"}, "[7]": {"conditions": "dose: 400.0 mg/kg/injection, schedule: Q01DX009 (ip), vehicle: saline"}, "[8]": {"conditions": "dose: 200.0 mg/kg/injection, schedule: Q04DX003 (ip), vehicle: saline with Tween-80"}},
  "note": "The list shows only some results of the screen, not a fair sample: it gathers tests that were run many times, whatever their T/C, doses with no T/C, and many T/C values between a quarter and a half above the control. Further doses and runs are listed elsewhere. T/C is the treated group as % of the vehicle group. Some doses have a count of surviving animals in place of a T/C: the source holds a T/C of zero for them, seemingly a mark for toxic or unscored doses. Some survivor counts are full or nearly so, which does not show that the dose was tolerated: survival well below the control is almost never listed, so the zero probably covers shortened survival too. Counts of survivors are from the toxicity check (mostly the fifth day) where no day follows; animals may have died later. Schedule codes are those of the source, taken here to give the interval after Q, in days (D) or hours (H), and the number of doses after X. Some schedule codes hold Z or #, which are not explained here.",
  "data": [
    {"smiles": "CC(C)(C)NC(=O)NCc1ccco1", "values": [
      {"measurement": "survivor count", "setting": "dose: 100.0 mg/kg/injection, schedule: Q01DX009 (ip), vehicle: Klucel (hydroxypropylcellulose) (HPC)", "result": "3 of 6"},
      {"measurement": "survivor count", "setting": "[1]", "result": "0 of 6"},
      {"measurement": "survivor count", "setting": "dose: 400.0 mg/kg/injection, schedule: Q01DX009 (ip), vehicle: Klucel (hydroxypropylcellulose) (HPC)", "result": "0 of 6"}
    ]},
    {"smiles": "COC(=O)N1C=Cc2ccccc2C1C#N", "note": "(configuration not stated)", "values": [
      {"measurement": "survivor count", "setting": "dose: 200.0 mg/kg/injection, schedule: Q04DX003 (ip), vehicle: saline", "result": "6 of 6"},
      {"measurement": "survivor count", "setting": "[2]", "result": "3 of 6"}
    ]},
    {"smiles": "Cc1cc2ccccc2cn1", "values": [
      {"measurement": "survivor count", "setting": "dose: 400.0 mg/kg/injection, schedule: Q01DX001 (ip), vehicle: other", "result": "1 of 4"},
      {"measurement": "survivor count", "setting": "[3]", "result": "0 of 6"}
    ]},
    {"smiles": "O=C(O)c1ccccc1C(=O)Nc1ccc([N+](=O)[O-])cc1Cl", "values": [
      {"measurement": "survivor count", "setting": "dose: 400.0 mg/kg/injection, schedule: Q04DX003 (ip), vehicle: Klucel (hydroxypropylcellulose) (HPC)", "result": "3 of 6"}
    ]},
    {"smiles": "CC1C=CC(c2ccccc2)C2C(=O)OC(=O)C12", "note": "(configuration not stated)", "values": [
      {"measurement": "survivor count", "setting": "[1]", "result": "2 of 3"}
    ]},
    {"smiles": "N#CSCC(=O)c1ccc(Cl)cc1", "values": [
      {"measurement": "survivor count", "setting": "dose: 400.0 mg/kg/injection, schedule: Q01DX001 (ip), vehicle: carboxymethylcellulose (CMC)", "result": "1 of 4"}
    ]},
    {"smiles": "O=C(O)c1c(Cl)cccc1Cl", "values": [
      {"measurement": "survivor count", "setting": "dose: 200.0 mg/kg/injection, schedule: Q01DX009 (ip), vehicle: saline with Tween-80", "result": "6 of 6"},
      {"measurement": "survivor count", "setting": "dose: 400.0 mg/kg/injection, schedule: Q01DX009 (ip), vehicle: saline with Tween-80", "result": "1 of 6"}
    ]},
    {"smiles": "CC1CN=C(c2ccc(NC(=O)Nc3ccc(C4=NCC(C)N4)cc3)cc2)N1", "note": "(configuration not stated)", "values": [
      {"measurement": "survivor count", "setting": "dose: 4.4 mg/kg/injection, schedule: Q01DX Z (ip), vehicle: saline", "result": "6 of 6"},
      {"measurement": "survivor count", "setting": "dose: 6.6 mg/kg/injection, schedule: Q01DX Z (ip), vehicle: saline", "result": "2 of 6"},
      {"measurement": "survivor count", "setting": "dose: 10.0 mg/kg/injection, schedule: Q01DX Z (ip), vehicle: saline", "result": "0 of 6"},
      {"measurement": "survivor count", "setting": "dose: 15.0 mg/kg/injection, schedule: Q01DX Z (ip), vehicle: saline", "result": "0 of 6"}
    ]},
    {"smiles": "c1ccc2c(N=NSc3ncnc4nc[nH]c34)c3ccccc3nc2c1", "values": [
      {"measurement": "survivor count", "setting": "dose: 80.0 mg/kg/injection, schedule: Q01DX001 (ip), vehicle: carboxymethylcellulose (CMC)", "result": "2 of 4"}
    ]},
    {"smiles": "CCOC(OCC)c1nc(NC(C)=O)[nH]c(=O)c1CCCCc1ccccc1", "values": [
      {"measurement": "survivor count", "setting": "dose: 100.0 mg/kg/injection, schedule: Q01DX001 (ip), vehicle: saline with Tween-80", "result": "6 of 6"}
    ]},
    {"smiles": "[CH3][Sn]([Br])([Br])[CH2]CCCBr", "values": [
      {"measurement": "survivor count", "setting": "[4]", "result": "0 of 3"},
      {"measurement": "survivor count", "setting": "[5]", "result": "0 of 3"},
      {"measurement": "survivor count", "setting": "[6]", "result": "0 of 3"}
    ]},
    {"smiles": "CCN(C1CCCCC1)C1CCCCC1", "values": [
      {"measurement": "survivor count", "setting": "[5]", "result": "2 of 6"},
      {"measurement": "survivor count", "setting": "[6]", "result": "0 of 6"},
      {"measurement": "survivor count", "setting": "[7]", "result": "0 of 6"}
    ]},
    {"smiles": "O=C(SCc1ccccc1)c1cccnc1", "values": [
      {"measurement": "survivor count", "setting": "[8]", "result": "3 of 6"},
      {"measurement": "survivor count", "setting": "[3]", "result": "0 of 6"}
    ]},
    {"smiles": "O=C(CC(=O)C(F)(F)C(F)(F)C(F)(F)F)c1csc2ccccc12", "values": [
      {"measurement": "survivor count", "setting": "dose: 64.0 mg/kg/injection, schedule: Q01DX015 (ip), vehicle: saline", "result": "6 of 6"},
      {"measurement": "survivor count", "setting": "dose: 75.0 mg/kg/injection, schedule: Q01DX009 (ip), vehicle: saline with Tween-80", "result": "2 of 6"},
      {"measurement": "survivor count", "setting": "dose: 100.0 mg/kg/injection, schedule: Q04DX003 (ip), vehicle: acetone", "result": "1 of 6"},
      {"measurement": "survivor count", "setting": "dose: 115.0 mg/kg/injection, schedule: Q01DX009 (ip), vehicle: saline with Tween-80", "result": "2 of 6"},
      {"measurement": "survivor count", "setting": "dose: 170.0 mg/kg/injection, schedule: Q01DX009 (ip), vehicle: saline with Tween-80", "result": "0 of 6"},
      {"measurement": "survivor count", "setting": "dose: 200.0 mg/kg/injection, schedule: Q04DX003 (ip), vehicle: acetone", "result": "1 of 6"},
      {"measurement": "survivor count", "setting": "dose: 400.0 mg/kg/injection, schedule: Q01DX001 (ip), vehicle: saline", "result": "2 of 6"}
    ]},
    {"smiles": "C=CCNP(=O)(OCC)OCC", "values": [
      {"measurement": "survivor count", "setting": "[4]", "result": "6 of 6"},
      {"measurement": "survivor count", "setting": "[7]", "result": "0 of 6"},
      {"measurement": "survivor count", "setting": "[2]", "result": "1 of 6"}
    ]},
    {"smiles": "C[P+]1(c2ccccc2)CCc2[nH]c3ccccc3c2C1", "note": "(configuration not stated)", "values": [
      {"measurement": "survivor count", "setting": "dose: 100.0 mg/kg/injection, schedule: Q04DX003 (ip), vehicle: saline with Tween-80", "result": "1 of 6"},
      {"measurement": "survivor count", "setting": "[8]", "result": "0 of 6"},
      {"measurement": "survivor count", "setting": "[3]", "result": "0 of 6"}
    ]},
    {"smiles": "NN1N=Nc2cccc3cccc1c23", "values": [
      {"measurement": "survivor count", "setting": "[2]", "result": "1 of 6"}
    ]},
    {"smiles": "Cc1c2ccccc2c2ccccc2[n+]1[O-]", "values": [
      {"measurement": "survivor count", "setting": "dose: 400.0 mg/kg/injection, schedule: Q04DX002 (ip), vehicle: saline with Tween-80", "result": "1 of 3"}
    ]},
    {"smiles": "Cc1c(C)c(O)c2c(c1C)C(C)C(=O)OC2=O", "note": "(configuration not stated)", "values": [
      {"measurement": "survivor count", "setting": "dose: 80.0 mg/kg/injection, schedule: Q01DX001 (ip), vehicle: saline", "result": "0 of 6"}
    ]}
  ]
}
